Experimental data taken from doi:10.1101/2024.11.09.622756.

T1: GpsB (bacterial two-hybrid fusion) (Streptococcus pneumoniae R6) (UniProt Q8DR57)
T1 sequence: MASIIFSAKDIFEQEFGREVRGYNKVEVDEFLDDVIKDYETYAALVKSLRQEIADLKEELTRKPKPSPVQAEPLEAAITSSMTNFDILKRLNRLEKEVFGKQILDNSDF

B1: PBP1a (endogenous, S. pneumoniae) (enzyme, UniProt Q8DR59 1-719)
chain: MNKPTILRLIKYLSISFLSLVIAAIVLGGGVFFYYVSKAPSLSESKLVATTSSKIYDNKNQLIADLGSERRVNAQANDIPTDLVKAIVSIEDHRFFDHRGIDTIRILGAFLRNLQSNSLQGGSALTQQLIKLTYFSTSTSDQTISRKAQEAWLAIQLEQKATKQEILTYYINKVYMSNGNYGMQTAAQNYYGKDLNNLSLPQLALLAGMPQAPNQYDPYSHPEAAQDRRNLVLSEMKNQGYISAEQYEKAVNTPITDGLQSLKSASNYPAYMDNYLKEVINQVEEETGYNLLTTGMDVYTNVDQEAQKHLWDIYNTDEYVAYPDDELQVASTIVDVSNGKVIAQLGARHQSSNVSFGINQAVETNRDWGSTMKPITDYAPALEYGVYESTATIVHDEPYNYPGTNTPVYNWDRGYFGNITLQYALQQSRNVPAVETLNKVGLNRAKTFLNGLGIDYPSIHYSNAISSNTTESDKKYGASSEKMAAAYAAFANGGTYYKPMYIHKVVFSDGSEKEFSNVGTRAMKETTAYMMTDMMKTVLSYGTGRNAYLAWLPQAGKTGTSNYTDEEIENHIKTSQFVAPDELFAGYTRKYSMAVWTGYSNRLTPLVGNGLTVAAKVYRSMMTYLSEGSNPEDWNIPEGLYRNGEFVFKNGARSTWSSPAPQQPPSTESSSSSSDSSTSQSSSTTPSTNNSTTTNPNNNTQQSNTTPDQQNQNPQPAQP

Tests used:
[1] = target: T1, GpsB (bacterial two-hybrid fusion) (Streptococcus pneumoniae R6); assay: two-hybrid
[2] = target: mGFP-GarP (N-terminal GFP fusion of GarP, Spr1457) (Streptococcus pneumoniae R6) (UniProt Q8CYI0); assay: co-IP

Row | Molecule | binding [1] | binding [2]
1 | GarP (bacterial two-hybrid fusion used against GpsB) (from UniProt Q8CYI0) | binds | –
2 | B1 | – | binds

No constants are given. Whether binding was seen depends on the method and setting. A result given as binding can be weak or reduced; the word gives no strength. For some assays here: Tags and fused reporters may be left off the sequences shown. For some assays here: In cells and extracts the contact can be indirect.
